Screen size: about 340,000 compounds; about 170 (0.05%) were called active. This list was built around the results that the source calls inconclusive (neither active nor inactive); the mix of calls is not that of the screen. Calls follow the shape of the dose curve; as a rule, active = well fitted inhibition curve with a large enough effect in the signal ratio, with a control signal flat (not every such curve was filed as active); inconclusive = small, poorly fitted or top-dose-only effect, or effect the other way, or a change in a side signal; inactive = flat fitted curve, though single readings scatter; the % refers to the signal ratio. A potency beside an inconclusive call is a rough fit, not a confirmed value.
Assay: qHTS Assay to Find Inhibitors of Chronic Active B-Cell Receptor Signaling;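 as to activity change, negative = inhibition: plate controls were basal doxycycline-induced cells for no effect and cells given 10 µM MG132 for full effect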
Conditions: ABC-DLBCL IkBa-CBG/CBR reporter, luminescence ratio (green luciferase fused to IkBa over red control in TMD8 lymphoma cells), 4 h; activity change, negative = inhibition: at 46.1 µM (top of the series)
Method in brief: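 Cell line TMD8 (human ABC DLBCL), stably expressing tet-inducible CBG68-IkBa fusion and CBR; IMDM/0.5% FBS; cpd up to 46 uM; dox induction, 4 h, 37C/5% CO2; dual luminescence; green/red ratio; MG132 control.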
Potency is read from the fitted curve at half-maximal effect.

SMILES	activity change, negative = inhibition	Potency
CC1(C)CC(=O)C=C(NNC(=O)c2ccccc2)C1	inconclusive: -12.8%	
COc1cc(C(C)=O)ccc1OCC(O)CN1CCN(c2ccccc2)CC1 (centres undefined)	inactive: -2.36%	
O=C(c1cc(COc2ccc3ncccc3c2)on1)N1CCC[C@H]1CO	inactive: 2.3%	
CCN(C(=O)CSc1nc2scc(-c3ccccc3)c2c(=O)n1C)C1CCS(=O)(=O)C1 (centres undefined)		inconclusive: 0.651 µM [falling, partial curve, poor fit]
O=C1C=C(O)c2cccc3cccc1c23	inactive: 4.61%	
CN1CCN(c2ccc(NC(=O)CSc3ccccc3)cc2F)CC1	inconclusive: -0.645%	
COc1ccc(C(C)=O)cc1COc1ccc(F)cc1	inconclusive: 4.85%	
Cc1ccccc1-c1n[nH]c(=S)n1/N=C/C=C/c1ccco1	inconclusive: 2.62%	
CC(C)CCOc1ccc(C2=NNC(=O)CC2)cc1	inconclusive: 16.7%	
Cc1nc2ccccn2c1-c1csc(Nc2ccc(C(=O)O)cc2)n1		inconclusive: 35.5 µM [rising, single point]
COc1ccc(/C=C/c2c([N+](=O)[O-])c(=O)n(C)c(=O)n2C)cc1	inconclusive: -31.1%	
Oc1cccc(/C=N/Nc2cc(N3CCOCC3)nc(N3CCOCC3)n2)c1		inconclusive: 16.4 µM [falling, partial curve]
O=C(NCc1ccco1)c1cc2ccccc2c(=O)o1	inconclusive: -3.39%	
COc1ccc(NC(=S)Nc2cc(C)[nH]n2)cc1Cl	inactive: 0.261%	
O=C(CSc1ncccc1-c1nc2ccccc2[nH]1)NC1CC1		inconclusive: 15.8 µM [falling, partial curve, poor fit]
CCn1c(SCC(=O)c2cc(C)n(-c3ccc(C(=O)OC)cc3)c2C)nnc1-c1cccnc1	inconclusive: 13%	
NC(=O)c1cccc(-c2cc(Nc3ccc(OC(F)(F)F)cc3)ncn2)c1	inconclusive: 1.54%	
Cc1noc(C)c1COC(=O)c1cnc(Cl)c(Cl)c1		inconclusive: 35.5 µM [falling, single point]
COc1ccc(NCc2nnc(SCC(=O)NCc3ccco3)n2-c2ccccc2OC)cc1		inconclusive: 8.2 µM [falling, partial curve, poor fit]
CCCCCCSC1=C(C#N)C(=O)NC2(CCCCC2)S1	inconclusive: 18.3%	
CC(C)(C)Nc1nc(OCC#N)nc(N2CCCCC2)n1		inconclusive: 3.16 µM [rising, partial curve]
CCN(CC)S(=O)(=O)c1ccc2c(c1)nc(SCc1nc3ccsc3c(=O)[nH]1)n2CC	inconclusive: 12%	
COc1ccc(Nc2nc(NC(C)(C)C)nc(N3CCOCC3)n2)c(OC)c1	inactive: -11.4%	
CCn1cc(C(=O)N2CCN(c3cccc(C)c3C)CC2)c(=O)c2ccc(C)nc21	inconclusive: -2.12%	
COc1ccc(C(=O)O/N=C(\N)c2ccncc2)cc1OC		inconclusive: 20.6 µM [falling, single point]
COc1ccccc1NC(=O)C(=O)NCCC1CCCCN1S(=O)(=O)c1ccc(F)cc1 (centres undefined)	inconclusive: 1.99%	
Cc1cccc(NC(=O)C(=O)NNC(=O)c2ccc(C(C)(C)C)cc2)c1		inconclusive: 12.6 µM [falling, single point]

A second format for some results above.

| SMILES | activity change, negative = inhibition | Potency |
| --- | --- | --- |
| Cc1noc(C)c1COC(=O)c1cnc(Cl)c(Cl)c1 |  | inconclusive: 35.5 µM [falling, single point] |
| COc1ccc(NCc2nnc(SCC(=O)NCc3ccco3)n2-c2ccccc2OC)cc1 |  | inconclusive: 8.2 µM [falling, partial curve, poor fit] |

Going on with the list.

SMILES	activity change, negative = inhibition	Potency
N#CC1=C(N)SC(N)=C(C#N)C1CCC1CCCCC1	inactive: 3.87%	
COC(=O)c1ccc(/C=C/C(=O)OCC(=O)Nc2sccc2C(N)=O)cc1		inconclusive: 29.1 µM [cytotoxic, single point]
CC(Sc1nnc(C2CC2)n1C)C(=O)Nc1ccc(N2CCOCC2)cc1 (centres undefined)	inconclusive: 4.27%	
Cn1c(=O)c(C=Nc2ccccc2)c(O)c2ccccc21		inconclusive: 12.6 µM [falling, partial curve]
CCOC(=O)n1cc(C(=O)c2ccccc2O)cn1	inconclusive: -14.5%	
Oc1ccccc1C1Nc2cccc3cccc(c23)N1	inactive: -0.762%	
CC(=O)c1sc(-c2ccc(Cl)cc2)cc1N	inconclusive: -10.5%	
CC(=O)C1=C(c2ccc(Br)cc2)C(=O)c2ccccc2C1=O		inconclusive: 29.1 µM [falling, single point]
COc1cc(CN2CCC(C(=O)N3CCN(c4ccccc4F)CC3)CC2)cc(OC)c1OC	inconclusive: 12.2%	
CN(Cc1ccccc1)S(=O)(=O)c1ccc(NS(=O)(=O)Cc2ccccc2)cc1	inconclusive: 9.29%	
COc1cccc(N2CC(NC(=O)Cc3cccs3)CC2=O)c1 (centres undefined)	inconclusive: 2.01%	
CCC1C/C(=C/c2ccco2)C(=O)/C(=C/c2ccco2)C1 (centres undefined)	inconclusive: -28.5%	
Cc1cccc(NC(=O)C2CCN(C(=O)c3ccc(F)cc3)CC2)n1		inconclusive: 0.13 µM [falling, full curve, poor fit]
CCOc1ccc(-c2cc(CCCC(=O)NCc3ccco3)no2)cc1		inconclusive: 8.2 µM [falling, partial curve]
Cc1ccccc1NS(=O)(=O)c1cc(C(=O)N2CCc3ccccc3C2)ccc1C	inactive: -0.77%	
c1ccc(CNc2ncnc3scc(-c4cccs4)c23)nc1		inconclusive: 11.2 µM [falling, partial curve]
O=C(c1ccc(F)cc1)N1CCN2C(=O)c3ccccc3C12c1ccc(Cl)cc1 (centres undefined)	inconclusive: 7.11%	
O=C(CN(C(=O)CNC(=O)c1ccco1)c1ccc(Cl)c(Cl)c1)NC1CCCCC1	inconclusive: -4.16%	
COc1cccc(C(=O)N2CCC(N3CC(C)OC(C)C3)CC2)c1 (centres undefined)	inactive: -0.917%	
COc1ccc(C(=O)Nc2ccc3[nH]ncc3c2)cc1OC		inconclusive: 35.5 µM [falling, partial curve, poor fit]
CC(C)c1ccc(C2C3=C(COC3=O)Nc3cc4c(cc32)OCO4)cc1 (centres undefined)		inconclusive: 0.501 µM [falling, full curve]
COC(=O)[C@@]1(Cc2ccc(OC)cc2)[C@H]2c3cc(C(=O)N4CCCC4)n(CCO)c3C[C@H]2CN1C(=O)c1ccccc1	inactive: -0.379%	
Cn1cc(CCNC(=O)C2CCC(=O)N(CCc3ccc(Cl)cc3)C2)cn1 (centres undefined)	inactive: 2.99%	
CCOc1cc(/C=N/NC(=O)CSc2cccc3cccnc23)ccc1O		inconclusive: 12.6 µM [falling, partial curve, poor fit]
Cc1ccccc1NC(=O)COC(=O)CN1C(=O)NC(C)(C)C1=O	inconclusive: 0.191%	
CCN(CC)c1ccc(NC(=O)c2ccc(=O)[nH]c2)cc1S(=O)(=O)Nc1ccccc1OC		inconclusive: 20 µM [falling, single point]
NC1=NC(=O)/C(=C\c2ccsc2)S1	inconclusive: 0.441%	

A section taken from the entries so far:
SMILES	activity change, negative = inhibition	Potency
CCOc1cc(/C=N/NC(=O)CSc2cccc3cccnc23)ccc1O		inconclusive: 12.6 µM [falling, partial curve, poor fit]
Cc1ccccc1NC(=O)COC(=O)CN1C(=O)NC(C)(C)C1=O	inconclusive: 0.191%	

(continued)

SMILES	activity change, negative = inhibition	Potency
O=C(O)c1cccc(Cn2c(Cl)c(/C=N/NC(=O)c3cc4ccccc4cc3O)sc2=O)c1	inconclusive: 14.6%	
O=C(N/N=C/c1ccc(O)cc1)Nc1cccc2nsnc12		inconclusive: 22.4 µM [falling, single point]
N=c1n(CC(=O)c2ccc([N+](=O)[O-])cc2)c2ccccc2n1Cc1ccc(Cl)cc1	inactive: 31.6%	
CCCn1c(C(C)NC(=O)c2ccccc2)nc2ccccc21 (centres undefined)		inconclusive: 1.46 µM [falling, partial curve, poor fit]
Clc1cccc(N=C2NN=C(c3ccc4c(c3)OCCO4)CS2)c1		inconclusive: 20.6 µM [falling, single point]
O=C(Nc1ccccc1C(F)(F)F)N1CCN(c2ccc3nncn3n2)CC1	inconclusive: -7.06%	
Cn1c2ccccc2c2cnn(CC(=O)Nc3ccccc3Br)c(=O)c21	inconclusive: 0.92%	
COc1cccc(CN2CCC(C(=O)N3CCN(Cc4ccc5c(c4)OCO5)CC3)CC2)c1	inactive: -2.51%	
O=C(CCl)N=c1sccn1Cc1ccccc1Cl		inconclusive: 22.4 µM [falling, single point]
C=CC[n+]1c(-c2ccc(OC)c(OC)c2)csc1NNC(=O)Nc1ccccc1	inactive: -23.5%	
CC(C)(C)N/N=C1\CC(c2ccccc2)Oc2ccccc21 (centres undefined)		inconclusive: 0.82 µM [rising, partial curve, poor fit]
CCCCC(=O)OCc1c(-c2cccc(OC)c2)ncc2ccccc12	inconclusive: -1.58%	
O=C(NCCN1CCCC1)C(c1ccccc1)c1ccccc1	inactive: -0.407%	
Oc1ccc(/C=N/Nc2cc(N3CCOCC3)nc(N3CCOCC3)n2)cc1O		inconclusive: 16.4 µM [falling, single point]
CC1CCN(Cc2c(C(=O)N/N=C/c3cc(Cl)ccc3O)nnn2-c2nonc2N)CC1	inactive: -13.6%	
N#Cc1ccc(NC(=O)c2cc(-c3cccs3)on2)cc1	inconclusive: 5.83%	
CCCn1ccc2c(OCC(=O)Nc3ccc(F)cc3F)cccc2c1=O		inconclusive: 2 µM [falling, full curve]
Cc1cccc(OCC(=O)Nc2ccc3c(c2)N(C)C(=O)c2ccccc2S3)c1		inconclusive: 22.4 µM [falling, single point]
COc1cccc(C(=O)NNC(=O)C(=O)Nc2cccc(Cl)c2C)c1		inconclusive: 35.5 µM [falling, single point]
O=C(c1ccco1)N1CCN(Cc2c(Cl)cccc2Cl)CC1	inconclusive: 7.39%	
CC(/C=N/NC(=O)CSc1ccccn1)=C\c1ccc(C(C)C)cc1	inactive: 2.2%	
COC(=O)/C(C#N)=C1/C=Cc2ccccc2N1	inconclusive: 16.4%	
Clc1ccccc1OCc1nc(-c2ccc(Br)o2)no1	inconclusive: 19.5%	
Cc1cc(Cl)cc(Cl)c1OCCOc1cccc2cccnc12	inconclusive: -9.54%	
CCN1CCN(CCOCCOc2ccccc2-c2ccccc2)CC1	inactive: -0.754%	
